Results: PMC11017252, “Copper(II) Complexes with 2,2′:6′,2″-Terpyridine Derivatives Displaying Dimeric Dichloro−μ–Bridged Crystal Structure: Biological Activities from 2D and 3D Tumor Spheroids to In Vivo Models” (Journal of Medicinal Chemistry, 2024)
“And” between values parts separate entries of the source, which are not always exact repeats. Identical values can stand only once.

Key:
[1] = test system: A2780 (ovarian carcinoma cell line); test: MTS cell viability assay, 2D culture, A2780; format: cell-based, human; settings: IC50 fibroblasts / IC50 A2780, 48 h
[2] = test system: HCT116 (colorectal carcinoma cell line); test: MTS cell viability assay, 2D culture, HCT116; format: cell-based, human; settings: IC50 fibroblasts / IC50 HCT116, 48 h
[3] = test system: HCT116DoxR (Dox-resistant colorectal carcinoma cell line); test: MTS cell viability assay, 2D culture, HCT116DoxR; settings: IC50 fibroblasts / IC50 HCT116DoxR, 48 h
HCT116DoxR cells [4] = test: Copper internalization and subcellular fractionation by ICP-AES; format: cell-based, human; settings: 6 h, 20× the IC50
HCT116DoxR cells [5] = test: Cellular internalization by fluorescence and confocal microscopy; format: cell-based, human; settings: 10× the IC50; for intracellular localization (fluorescence): 3 and 6 h
[6] = Abcam ab109719 and Cell Signaling #9038 kits

SMILES | SI (A2780) [1] | SI (HCT116) [2] | SI (HCT116DoxR) [3] | other results
F[P-](F)(F)(F)(F)F.F[P-](F)(F)(F)(F)F.[Cl][Cu].[Cl][Cu].c1ccc(-c2cc(-c3ccccn3)nc(-c3ccccn3)c2)nc1.c1ccc(-c2cc(-c3ccccn3)nc(-c3ccccn3)c2)nc1 [complex 7, [Cu2Cl2(4′-(2-Pyridynyl)-terpy)2](PF6)2] | 14.2 | 71.3 | 82.8 | copper % cytosol (HCT116DoxR cells [4]; Abcam kit ab109719): 0.00%; copper % mitochondria, membrane, and endoplasmic reticulum (HCT116DoxR cells [4]; Abcam kit ab109719): 35.26%; copper % nucleus, cytoskeleton, and Golgi complex (HCT116DoxR cells [4]; Abcam kit ab109719): 45.19%; copper % supernatant (HCT116DoxR cells [4]; Abcam kit ab109719): 19.55%
COc1ccc(-c2cc(-c3ccccn3)nc(-c3ccccn3)c2)c2ccccc12 [L3] | – | – | 4.9 | –
c1ccc(-c2cc(-c3ccco3)cc(-c3ccccn3)n2)nc1 [L5] | – | – | 80.0 | –
F[P-](F)(F)(F)(F)F.F[P-](F)(F)(F)(F)F.[Cl][Cu].[Cl][Cu].c1ccc(-c2cc(-c3cccc4ccccc34)cc(-c3ccccn3)n2)nc1.c1ccc(-c2cc(-c3cccc4ccccc34)cc(-c3ccccn3)n2)nc1 [complex 1, [Cu2Cl2(4′-(1-Naphthyl)-terpy)2](PF6)2] | 3.8 | 19.4 | 24.5 | –
COc1ccc2c(OC)ccc(-c3cc(-c4ccccn4)nc(-c4ccccn4)c3)c2c1 [L4] | – | – | 36.1 | –
c1ccc(-c2cc(-c3ccnc4ccccc34)cc(-c3ccccn3)n2)nc1 [L2] | – | – | 119.9 | –
F[P-](F)(F)(F)(F)F.F[P-](F)(F)(F)(F)F.[Cl][Cu].[Cl][Cu].c1ccc(-c2cc(-c3ccco3)cc(-c3ccccn3)n2)nc1.c1ccc(-c2cc(-c3ccco3)cc(-c3ccccn3)n2)nc1 [complex 5, [Cu2Cl2(4′-(2-Furanyl)-terpy)2](PF6)2] | 15.9 | 47.6 | 56.4 | copper % cytosol (HCT116DoxR cells [4]; Abcam kit ab109719): 2.66%; copper % mitochondria, membrane, and endoplasmic reticulum (HCT116DoxR cells [4]; Abcam kit ab109719): 20.39%; copper % nucleus, cytoskeleton, and Golgi complex (HCT116DoxR cells [4]; Abcam kit ab109719): 54.99%; copper % supernatant (HCT116DoxR cells [4]; Abcam kit ab109719): 21.96%
F[P-](F)(F)(F)(F)F.F[P-](F)(F)(F)(F)F.[Cl][Cu].[Cl][Cu].c1ccc(-c2cc(-c3ccnc4ccccc34)cc(-c3ccccn3)n2)nc1.c1ccc(-c2cc(-c3ccnc4ccccc34)cc(-c3ccccn3)n2)nc1 [complex 2, [Cu2Cl2(4′-(4-Quinolyl)-terpy)2](PF6)2] | 58.0 | 101.6 | 124.7 | intracellular localization (fluorescence) (HCT116DoxR cells [5]): mainly in the cell membrane and cytosol; internalization after 6 h (HCT116DoxR cells [5]; 6 h): almost complete; copper % Golgi complex (HCT116DoxR cells [4]; [6]): ~10% and 9.59%; copper % cytosol (HCT116DoxR cells [4]; [6]): 2.60%; copper % mitochondria, membrane, and endoplasmic reticulum (HCT116DoxR cells [4]; [6]): 31.00%; copper % nucleus and cytoskeleton (HCT116DoxR cells [4]; [6]): 33.13%; copper % other organelles (HCT116DoxR cells [4]; [6]): 0.00%; copper % supernatant (HCT116DoxR cells [4]; [6]): 23.68%
CCn1c2ccccc2c2cc(-c3cc(-c4ccccn4)nc(-c4ccccn4)c3)ccc21.CCn1c2ccccc2c2cc(-c3cc(-c4ccccn4)nc(-c4ccccn4)c3)ccc21.F[P-](F)(F)(F)(F)F.F[P-](F)(F)(F)(F)F.[Cl][Cu].[Cl][Cu] [complex 8, [Cu2Cl2(4′-(N-Ethyl-9H-carbazol-3-yl)-terpy)2](PF6)2] | 20.0 | 75.1 | 38.4 | –
COc1ccc(-c2cc(-c3ccccn3)nc(-c3ccccn3)c2)c2ccccc12.COc1ccc(-c2cc(-c3ccccn3)nc(-c3ccccn3)c2)c2ccccc12.F[P-](F)(F)(F)(F)F.F[P-](F)(F)(F)(F)F.[Cl][Cu+].[Cl][Cu+] [complex 3, [Cu2Cl2(4′-(4-Methoxy-1-naphthyl)-terpy)2](PF6)2] | 9.5 | 49.8 | 42.2 | intracellular localization (fluorescence) (HCT116DoxR cells [5]): throughout the cell, including in the nucleus; % of internalization (copper in cellular fraction) (HCT116DoxR cells [4]): ~90%; copper % cytosol (HCT116DoxR cells [4]; Abcam kit ab109719): 9.78%; copper % mitochondria, membrane, and endoplasmic reticulum (HCT116DoxR cells [4]; Abcam kit ab109719): 33.58%; copper % nucleus, cytoskeleton, and Golgi complex (HCT116DoxR cells [4]; Abcam kit ab109719): 43.66%; copper % supernatant (HCT116DoxR cells [4]; Abcam kit ab109719): 12.98%
CCn1c2ccccc2c2cc(-c3cc(-c4ccccn4)nc(-c4ccccn4)c3)ccc21 [L8] | – | – | 23.4 | –
c1ccc(-c2cc(-c3cccc4ccccc34)cc(-c3ccccn3)n2)nc1 [L1] | – | – | 285.1 | –
COc1ccc2c(OC)ccc(-c3cc(-c4ccccn4)nc(-c4ccccn4)c3)c2c1.COc1ccc2c(OC)ccc(-c3cc(-c4ccccn4)nc(-c4ccccn4)c3)c2c1.F[P-](F)(F)(F)(F)F.F[P-](F)(F)(F)(F)F.[Cl][Cu].[Cl][Cu] [complex 4, [Cu2Cl2(4′-(4,7-Dimethoxy-1-naphthyl)-terpy)2](PF6)2] | 5.4 | 17.1 | 16.5 | –
c1ccc(-c2cc(-c3ccccn3)nc(-c3ccccn3)c2)nc1 [L7] | – | – | 110.1 | –
